Measurements reported in the supplement of paper PMC8728848.
The list shows a part of the results.

Experiments:
Experiment in all cases: glycan array binding signal (z-score within array); higher = stronger binding
Conditions in all cases: glycan notation: IUPAC condensed, linker removed
[1] = target: Fuc(a1-2)Gal
How it was run: (§1)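 Negative Z-scores can be read as non-binding. The Z-score is calculated within each array and then averaged across arrays of one protein sequence at different concentrations or buffers and across linkers. Arrays, 3228 in all, were curated from the Consortium for Functional Glycomics database and kept only where the protein sequence was available.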

[2] = target: Fuc(a1-2)Gal(b1-3)GalNAc
How it was run: as §1

[3] = target: Fuc(a1-2)Gal(b1-3)GalNAc(a1-3)[Fuc(a1-2)]Gal(b1-4)Glc
How it was run: as §1

[4] = target: Fuc(a1-2)Gal(b1-3)GalNAc(a1-3)[Fuc(a1-2)]Gal(b1-4)GlcNAc
How it was run: as §1

[5] = target: Fuc(a1-2)Gal(b1-3)GalNAc(b1-3)Gal
How it was run: as §1

[6] = target: Fuc(a1-2)Gal(b1-3)GalNAc(b1-3)Gal(a1-4)Gal(b1-4)Glc
How it was run: as §1

[7] = target: Fuc(a1-2)Gal(b1-3)GalNAc(b1-4)[Neu5Ac(a2-3)]Gal(b1-4)Glc
How it was run: as §1

[8] = target: Fuc(a1-2)Gal(b1-3)GlcNAc
How it was run: as §1

[9] = target: Fuc(a1-2)Gal(b1-3)GlcNAc(b1-2)Man(a1-3)[Fuc(a1-2)Gal(b1-3)GlcNAc(b1-2)Man(a1-6)]Man(b1-4)GlcNAc(b1-4)GlcNAc
How it was run: as §1

[10] = target: Fuc(a1-2)Gal(b1-3)GlcNAc(b1-3)Gal(b1-4)Glc
How it was run: as §1

[11] = target: Fuc(a1-2)Gal(b1-3)GlcNAc(b1-3)[Fuc(a1-3)[Gal(b1-4)]GlcNAc(b1-6)]Gal(b1-4)Glc
How it was run: as §1

[12] = target: Fuc(a1-2)Gal(b1-3)[Fuc(a1-4)]GlcNAc
How it was run: as §1

[13] = target: Fuc(a1-2)Gal(b1-3)[Fuc(a1-4)]GlcNAc(b1-2)Man(a1-3)[Fuc(a1-2)Gal(b1-3)[Fuc(a1-4)]GlcNAc(b1-2)Man(a1-6)]Man(b1-4)GlcNAc(b1-4)GlcNAc
How it was run: as §1

[14] = target: Fuc(a1-2)Gal(b1-3)[Fuc(a1-4)]GlcNAc(b1-3)[Fuc(a1-3)[Gal(b1-4)]GlcNAc(b1-6)]Gal(b1-4)Glc
How it was run: as §1

[15] = target: Fuc(a1-2)Gal(b1-3)[Fuc(a1-4)]GlcNAc(b1-3)[Gal(b1-4)GlcNAc(b1-6)]Gal(b1-4)Glc
How it was run: as §1

[16] = target: Fuc(a1-2)Gal(b1-4)Glc
How it was run: as §1

[17] = target: Fuc(a1-2)Gal(b1-4)Glc6S
How it was run: as §1

[18] = target: Fuc(a1-2)Gal(b1-4)GlcNAc
How it was run: as §1

[19] = target: Fuc(a1-2)Gal(b1-4)GlcNAc(b1-2)Man(a1-3)[Fuc(a1-2)Gal(b1-4)GlcNAc(b1-2)Man(a1-6)]Man(b1-4)GlcNAc(b1-4)GlcNAc
How it was run: as §1

[20] = target: Fuc(a1-2)Gal(b1-4)GlcNAc(b1-3)Gal(b1-4)GlcNAc
How it was run: as §1

[21] = target: Fuc(a1-2)Gal(b1-4)GlcNAc(b1-3)Gal(b1-4)GlcNAc(b1-3)Gal(b1-4)GlcNAc
How it was run: as §1

[22] = target: Fuc(a1-2)Gal(b1-4)GlcNAc(b1-3)GalNAc
How it was run: as §1

[23] = target: Fuc(a1-2)Gal(b1-4)GlcNAc6S
How it was run: as §1

[24] = target: Fuc(a1-2)Gal(b1-4)[Fuc(a1-3)]GlcNAc
How it was run: as §1

[25] = target: Fuc(a1-2)Gal(b1-4)[Fuc(a1-3)]GlcNAc(b1-2)Man(a1-3)[Fuc(a1-2)Gal(b1-4)[Fuc(a1-3)]GlcNAc(b1-2)Man(a1-6)]Man(b1-4)GlcNAc(b1-4)GlcNAc
How it was run: as §1

[26] = target: Fuc(a1-2)Gal(b1-4)[Fuc(a1-3)]GlcNAc(b1-3)Gal(b1-4)[Fuc(a1-3)]GlcNAc
How it was run: as §1

[27] = target: Fuc(a1-2)Gal(b1-4)[Fuc(a1-3)]GlcNAc(b1-3)Gal(b1-4)[Fuc(a1-3)]GlcNAc(b1-3)Gal(b1-4)[Fuc(a1-3)]GlcNAc
How it was run: as §1

[28] = target: Fuc(a1-2)Gal6S(b1-4)Glc
How it was run: as §1

[29] = target: Fuc(a1-2)Gal6S(b1-4)Glc6S
How it was run: as §1

[30] = target: Fuc(a1-2)Gal6S(b1-4)GlcNAc
How it was run: as §1

[31] = target: Fuc(a1-2)[Gal(a1-3)]Gal
How it was run: as §1

[32] = target: Fuc(a1-2)[Gal(a1-3)]Gal(b1-3)GlcNAc
How it was run: as §1

[33] = target: Fuc(a1-2)[Gal(a1-3)]Gal(b1-3)GlcNAc(b1-2)Man(a1-3)[Fuc(a1-2)[Gal(a1-3)]Gal(b1-3)GlcNAc(b1-2)Man(a1-6)]Man(b1-4)GlcNAc(b1-4)GlcNAc
How it was run: as §1

[34] = target: Fuc(a1-2)[Gal(a1-3)]Gal(b1-4)Glc
How it was run: as §1

[35] = target: Fuc(a1-2)[Gal(a1-3)]Gal(b1-4)GlcNAc
How it was run: as §1

[36] = target: Fuc(a1-2)[Gal(a1-3)]Gal(b1-4)GlcNAc(b1-2)Man(a1-3)[Fuc(a1-2)[Gal(a1-3)]Gal(b1-4)GlcNAc(b1-2)Man(a1-6)]Man(b1-4)GlcNAc(b1-4)GlcNAc
How it was run: as §1

[37] = target: Fuc(a1-2)[Gal(a1-3)]Gal(b1-4)[Fuc(a1-3)]GlcNAc
How it was run: as §1

B1: SAG1 (Toxoplasma gondii), P13664 (protein)
chain: MSVSLHHFIISSGFLTSMFPKAVRRAVTAGVFAAPTLMSFLRCGVMASDPPLVANQVVTCPDKKSTAAVILTPTENHFTLKCPKTALTEPPTLAYSPNRQICPAGTTSSCTSKAVTLSSLIPEAEDSWWTGDSASLDTAGIKLTVPIEKFPVTTQTFVVGCIKGDDAQSCMVTVTVQARASSVVNNVARCSYGADSTLGPVKLSAEGPTTMTLVCGKDGVKVPQDNNQYCSGTTLTGCNEKSFKDILPKLTENPWQGNASSDKGATLTIKKEAFPAESKSVIIGCTGGSPEKHHCTVKLEFAGAAGSAKSAAGTASHVSIFAMVIGLIGSIAACVA
**Q.** How did the “glycan array binding signal (z-score)” value [1] turn out when B1 was run?
**A.** -0.054

**Q.** What about the “glycan array binding signal (z-score)” value [2] of the same binder?
**A.** 0.297

**Q.** What about the “glycan array binding signal (z-score)” value [3] of the same binder?
**A.** 0.623

**Q.** What about the “glycan array binding signal (z-score)” value [4] of the same binder?
**A.** 0.327

**Q.** And the “glycan array binding signal (z-score)” value [5]?
**A.** 1.35

**Q.** And the “glycan array binding signal (z-score)” value [6]?
**A.** -0.127

**Q.** What about the “glycan array binding signal (z-score)” value [7] of the same binder?
**A.** -0.274

**Q.** And the “glycan array binding signal (z-score)” value [8]?
**A.** 0.025

**Q.** What about the “glycan array binding signal (z-score)” value [9] of the same binder?
**A.** 0.14

**Q.** And the “glycan array binding signal (z-score)” value [10]?
**A.** -0.311

**Q.** And the “glycan array binding signal (z-score)” value [11]?
**A.** 0.289

**Q.** What about the “glycan array binding signal (z-score)” value [12] of the same binder?
**A.** 0.139

**Q.** And the “glycan array binding signal (z-score)” value [13]?
**A.** 1.06

**Q.** What about the “glycan array binding signal (z-score)” value [14] of the same binder?
**A.** 0.197

**Q.** And the “glycan array binding signal (z-score)” value [15]?
**A.** -0.631

**Q.** What about the “glycan array binding signal (z-score)” value [16] of the same binder?
**A.** -0.249

**Q.** And the “glycan array binding signal (z-score)” value [17]?
**A.** -0.308

**Q.** And the “glycan array binding signal (z-score)” value [18]?
**A.** -0.142

**Q.** And the “glycan array binding signal (z-score)” value [19]?
**A.** -0.074

**Q.** What about the “glycan array binding signal (z-score)” value [20] of the same binder?
**A.** -0.45

**Q.** What about the “glycan array binding signal (z-score)” value [21] of the same binder?
**A.** 0.433

**Q.** And the “glycan array binding signal (z-score)” value [22]?
**A.** -0.392

**Q.** And the “glycan array binding signal (z-score)” value [23]?
**A.** 0.137

**Q.** What about the “glycan array binding signal (z-score)” value [24] of the same binder?
**A.** 0.074

**Q.** What about the “glycan array binding signal (z-score)” value [25] of the same binder?
**A.** 0.574

**Q.** And the “glycan array binding signal (z-score)” value [26]?
**A.** 0.249

**Q.** What about the “glycan array binding signal (z-score)” value [27] of the same binder?
**A.** 0.122

**Q.** What about the “glycan array binding signal (z-score)” value [28] of the same binder?
**A.** -0.355

**Q.** What about the “glycan array binding signal (z-score)” value [29] of the same binder?
**A.** 1.45

**Q.** What about the “glycan array binding signal (z-score)” value [30] of the same binder?
**A.** 1.12

**Q.** What about the “glycan array binding signal (z-score)” value [31] of the same binder?
**A.** -0.837

**Q.** And the “glycan array binding signal (z-score)” value [32]?
**A.** -0.413

**Q.** And the “glycan array binding signal (z-score)” value [33]?
**A.** 0.198

**Q.** What about the “glycan array binding signal (z-score)” value [34] of the same binder?
**A.** -0.586

**Q.** And the “glycan array binding signal (z-score)” value [35]?
**A.** -0.112

**Q.** And the “glycan array binding signal (z-score)” value [36]?
**A.** 0.615

**Q.** What about the “glycan array binding signal (z-score)” value [37] of the same binder?
**A.** 0.614
